Measurements as given in article PMC2958145.

Tests used:
[1] = molecular target: CRASP-5 expressed by transformed B. garinii strain G1/pCRASP-5 (B. burgdorferi s.s. strain LW2); test: serum adsorption assay on live spirochetes; 1×10^9 borreliae incubated in NHS with 34 mM EDTA 1 h at room temperature, four washes with PBSA 0.05% Tween20, eluted with 100 mM glycine-HCl pH 2.0; Western blot with mAb VIG8 or JHD 7.10
[2] = molecular target: recombinant polyhistidine-tagged ErpQ; test: ELISA; CRASP-3, CRASP-5, ErpX, ErpQ (5 µg/ml) coated on microtiter plates; 33 µM CFH, CFHR1, CFHR2 or CFHR5 added 1 h at RT; detected with goat CFH antiserum or JHD 7.10; both purified
[3] = molecular target: recombinant polyhistidine-tagged ErpX; test: as above

B1: factor H-related protein 5 (CFHR5) of human serum (protein, UniProt Q9BXR6 19-569)
chain: EGTLCDFPKIHHGFLYDEEDYNPFSQVPTGEVFYYSCEYNFVSPSKSFWTRITCTEEGWSPTPKCLRMCSFPFVKNGHSESSGLIHLEGDTVQIICNTGYSLQNNEKNISCVERGWSTPPICSFTKGECHVPILEANVDAQPKKESYKVGDVLKFSCRKNLIRVGSDSVQCYQFGWSPNFPTCKGQVRSCGPPPQLSNGEVKEIRKEEYGHNEVVEYDCNPNFIINGPKKIQCVDGEWTTLPTCVEQVKTCGYIPELEYGYVQPSVPPYQHGVSVEVNCRNEYAMIGNNMITCINGIWTELPMCVATHQLKRCKIAGVNIKTLLKLSGKEFNHNSRIRYRCSDIFRYRHSVCINGKWNPEVDCTEKREQFCPPPPQIPNAQNMTTTVNYQDGEKVAVLCKENYLLPEAKEIVCKDGRWQSLPRCVESTAYCGPPPSINNGDTTSFPLSVYPPGSTVTYRCQSFYKLQGSVTVTCRNKQWSEPPRCLDPCVVSEENMNKNNIQLKWRNDGKLYAKTGDAVEFQCKFPHKAMISSPPFRAICQEGKFEYPICE
[1]
  binding: binds

B2: purified recombinant CFHR5 (protein, UniProt Q9BXR6 19-569)
chain: B1 chain
[2]
  binding: no binding (tested: 33 µM)
[3]
  binding: no binding (tested: 33 µM)

Results are given in words; binding and its absence hold for the method and conditions named. For part of these data: Binding calls can cover weak binding; strength is not graded here.
